Measured data: PubChem BioAssay AID1259405 (NCATS, 2018)
Here is an unselected part of about 50,000 reagents. In the full data, about 4,000 (8%) were called active. 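Mouse siRNA library applied to hamster cells; one well for each siRNA.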

- Screen: 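Silenced genes that increase secreted GFP made by CHO cells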 (primary screen)
- System: Chinese hamster CHO-K1 ovary cells with stable secreted eGFP expression
- Reagent: single siRNA against mouse genes, 0.8 pmol siRNA per well (2 µl of 400 nM stock)
- Duration: 3 days
- Measured: 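Percent of the per-plate non-targeting control median for intracellular GFP per well by laser scanning cytometry and for cell viability by ATP luminescence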
- Direction: GFP, % of control: higher = more GFP per well, higher productivity; viability (ATP), % of control: higher = more viable cells (more ATP)
- Active means: 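Called active when intracellular GFP, relative to negative control, is at or above 120%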

Against Tbc1d12 [SID363545225], the entry reads GFP, % of control 116; viability (ATP), % of control 105; inactive.
Silencing of Tbc1d12 [SID363548738] gave: GFP, % of control 75.8; viability (ATP), % of control 61.2; inactive.
After knock-down of Tbc1d12 [SID363562544], the record shows GFP, % of control 66; viability (ATP), % of control 47.6; inactive.
With knock-down of Or1j10 [SID363554181] the results were GFP, % of control 78; viability (ATP), % of control 68.1; inactive.
With knock-down of Or1j10 [SID363567628] the results were GFP, % of control 66; viability (ATP), % of control 36.6; inactive.
Against Or1j10 [SID363584985], the entry reads GFP, % of control 52.8; viability (ATP), % of control 74.8; inactive.
Ccl6 [SID363541275] scored GFP, % of control 56.3; viability (ATP), % of control 63.8; inactive.
Ccl6 [SID363555902] gave GFP, % of control 37.1; viability (ATP), % of control 53.2; inactive.
After knock-down of Ccl6 [SID363566191], the record shows GFP, % of control 89.8; viability (ATP), % of control 60.6; inactive.
With knock-down of Prl2b1 [SID363541889], the record shows GFP, % of control 56.2; viability (ATP), % of control 67.5; inactive.
For Prl2b1 [SID363553481], the entry reads GFP, % of control 82; viability (ATP), % of control 78.8; inactive.
Knock-down of Prl2b1 [SID363566805] came out at: GFP, % of control 56.7; viability (ATP), % of control 53.9; inactive.
With knock-down of Adgra1 [SID363571288] the results were GFP, % of control 40.3; viability (ATP), % of control 60.8; inactive.
Adgra1 [SID363571640] showed GFP, % of control 60.2; viability (ATP), % of control 69.5; inactive.
Adgra1 [SID363571992] showed GFP, % of control 100; viability (ATP), % of control 101; inactive.
Against Cep131 [SID363546653] the deposit lists GFP, % of control 91.4; viability (ATP), % of control 103; inactive.
Cep131 [SID363548409] scored GFP, % of control 63.9; viability (ATP), % of control 75.3; inactive.
For Cep131 [SID363560587], the values are GFP, % of control 45.1; viability (ATP), % of control 59.1; inactive.
